In patent US20020123080A1, “Inhibiting proliferation of cancer cells” (Tufts University, priority 1996, published 2002):
For at least one compound, name, drawing or mass did not settle the structure.

Tested on: MCF-7 cells
Experiment: MCF-7 cell proliferation yield assay (nuclei counted after 4 days) with or without hormone
Type: cell-based, human
Conditions: hormone added with the inhibitor (CDHuS, CDHA, rHA); estradiol at 100 pM; the other hormones tested against rHA, data not shown
Protocol: A clonal population of the human breast cancer MCF-7 cell line was used in some of the experiments described below. These cells were routinely grown in 5% fetal bovine serum (FBS) supplemented-Dulbecco's Modified Eagle's Medium (DME). […] Estrogen non-target, serum-insensitive human breast cancer MDA-MB231 cells (ATCC, Rockville, Md.) were used as controls; they were grown under the same conditions as MCF-7 cells.
To assess the inhibitory effect of serum or purified protein preparations, 4×10^4 cells/well were seeded in 12-well Falcon Multiplates in 5% FBS; they were allowed to attach for 24 h before exposing them to test medium. Cell proliferation yields were measured after 4 days in DME plus 25 ug transferrin (T)/ml and 100 ng insulin (I)/ml ([…]) alone, or ITDME plus CD human serum (CDHuS), or purified protein preparations. Each sample was tested in duplicate in the presence or absence of 100 pM estradiol (E2) and each experiment was repeated at least three times. Phenol red-free media were used in all experiments involving cell proliferation rates or yields. Cells were lysed and nuclei counted on a Coulter Counter Model ZM.

SMILES: C[C@]12CC[C@@H]3c4ccc(O)cc4CC[C@H]3[C@@H]1CC[C@@H]2O [Estradiol, estradiol]
- reversal by hormone of the inhibitory effect on MCF-7 proliferation: reversed the inhibitory effect
